Experimental data from patent US20130158238A1 (THERACLONE SCIENCES, published 2013).
These are yes or no findings as the source states them, for the method shown. Some results given as binding are weak or reduced against the parent protein; the word gives no strength.

Chains of the proteins cited; added tags and fusions are not shown.
UniProt P06821: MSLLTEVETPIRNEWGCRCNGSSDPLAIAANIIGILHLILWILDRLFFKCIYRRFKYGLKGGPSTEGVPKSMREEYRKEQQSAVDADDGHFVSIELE

B1: 8i10 (antibody, V domains shown)
VH: QVQLQESGPGLVKPSETLSLTCTVSGSSISNYYWSWIRQSPGKGLEWIGFIYYGGNTKYNPSLKSRVTISQDTSKSQVSLTMSSVTAAESAVYFCARASCSGGYCILDYWGQGTLVTVS
VL: DIQMTQSPSSLSASVGDRVTITCRASQNIYKYLNWYQQRPGKAPKGLISAASGLQSGVPSRFSGSGSGTDFTLTITSLQPEDFATYYCQQSYSPPLTFGGGTRVEIK
B2: 21B15 (antibody, V domains shown)
VH: QVQLQESGPGLVKPSETLSLTCTVSGSSISNYYWSWIRQSPGKGLEWIGFIYYGGNTKYNPSLKSRVTISQDTSKSQVSLTMSSVTAAESAVYFCARASCSGGYCILDYWGQGTLVTVS
VL: DIQVTQSPSSLSASVGDRVTITCRASQNIYKYLNWYQQRPGKAPKGLISAASGLQSGVPSRFSGSGSGTDFTLTITSLQPEDFATYYCQQSYSPPLTFGGGTRVDIK

Key:
[1] = target: M2 protein on influenza A/Puerto Rico/8/34 (H1N1) virus particles (Influenza A virus A/Puerto Rico/8/34 (H1N1)) (UniProt P06821); assay: ELISA on virus, crude supernatants
[2] = target: M2 protein on influenza A/Puerto Rico/8/34 (H1N1) virus particles (Influenza A virus A/Puerto Rico/8/34 (H1N1)) (UniProt P06821); assay: ELISA on PR8 virus, crude supernatants

Row | Binder | binding [1] | binding [2]
1 | B1 | binds | binds
2 | B2 | binds | binds
